PubChem BioAssay AID1224830 – NIAID, 2016
Purpose: 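Host factors that control LPS-induced TNF expression in human macrophages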 (primary screen). System: human THP-1 monocytic leukaemia cells, TNF dual-luciferase reporter clone, PMA-differentiated to macrophage-like cells. Reagents: siRNA pool against human genes, 50 nM. Time to read-out: LPS for 4 h, given about 3 days after siRNA transfection. Challenge: bacterial LPS (TLR4 ligand), 10 ng/ml. Measured: 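Ratio of firefly to renilla light, scaled to the plate median and expressed as a robust z-score per replicate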. Reading the numbers: TNF reporter robust z-score: higher = stronger TNF reporter response to LPS. Rule for the call: 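Each well counts as active if its z-score is over 2.8 or under -1.5; controls are left without a call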.
Shown is one part, drawn at random, of about 18,000 reagents tested. Of all reagents, about 2,900 (16%) were called active. 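Calls are made per well; low scores hint the gene aids the LPS response, high scores that it dampens it.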 Repeated entries: four replicate wells of each siRNA pool.

no.	Gene	TNF reporter robust z-score	call
1	POSTN (GeneID 10631)	-1.59	active
2	POSTN (GeneID 10631)	-1.56	active
3	POSTN (GeneID 10631)	-1.84	active
4	POSTN (GeneID 10631)	-1.75	active
5	ABTB1 (GeneID 80325)	-0.47	inactive
6	ABTB1 (GeneID 80325)	0.38	inactive
7	ABTB1 (GeneID 80325)	1.35	inactive
8	ABTB1 (GeneID 80325)	1.73	inactive
9	CBL (GeneID 867)	-1.18	inactive
10	CBL (GeneID 867)	0.63	inactive
11	CBL (GeneID 867)	1.36	inactive
12	CBL (GeneID 867)	1.18	inactive
13	SUPT7L (GeneID 9913)	-1.47	inactive
14	SUPT7L (GeneID 9913)	0.02	inactive
15	SUPT7L (GeneID 9913)	0.43	inactive
16	SUPT7L (GeneID 9913)	-0.42	inactive
17	PRKCE (GeneID 5581)	2.01	inactive
18	PRKCE (GeneID 5581)	0.45	inactive
19	PRKCE (GeneID 5581)	0.83	inactive
20	PRKCE (GeneID 5581)	-0.08	inactive
21	RPL34 (GeneID 6164)	0.71	inactive
22	RPL34 (GeneID 6164)	1.24	inactive
23	RPL34 (GeneID 6164)	0.78	inactive
24	RPL34 (GeneID 6164)	1.7	inactive
25	POLQ (GeneID 10721)	0.2	inactive
26	POLQ (GeneID 10721)	-0.26	inactive
27	POLQ (GeneID 10721)	-0.84	inactive
28	POLQ (GeneID 10721)	0.78	inactive
29	SCYL1 (GeneID 57410)	2.32	inactive
30	SCYL1 (GeneID 57410)	0.19	inactive
31	SCYL1 (GeneID 57410)	0.74	inactive
32	SCYL1 (GeneID 57410)	0.51	inactive
33	HEATR1 (GeneID 55127)	-0.3	inactive
34	HEATR1 (GeneID 55127)	0.78	inactive
35	HEATR1 (GeneID 55127)	0.22	inactive
36	HEATR1 (GeneID 55127)	0.32	inactive
37	CEMIP2 (GeneID 23670)	-0.64	inactive
38	CEMIP2 (GeneID 23670)	0.2	inactive
39	CEMIP2 (GeneID 23670)	-0.8	inactive
40	CEMIP2 (GeneID 23670)	-0.77	inactive
41	SHF (GeneID 90525)	-1.01	inactive
42	SHF (GeneID 90525)	-0.47	inactive
43	SHF (GeneID 90525)	-0.43	inactive
44	SHF (GeneID 90525)	-0.67	inactive

A stretch of the results above:
no.	Gene	TNF reporter robust z-score	call
18	PRKCE (GeneID 5581)	0.45	inactive
19	PRKCE (GeneID 5581)	0.83	inactive
20	PRKCE (GeneID 5581)	-0.08	inactive
21	RPL34 (GeneID 6164)	0.71	inactive
22	RPL34 (GeneID 6164)	1.24	inactive
23	RPL34 (GeneID 6164)	0.78	inactive
24	RPL34 (GeneID 6164)	1.7	inactive

The list goes on:
no.	Gene	TNF reporter robust z-score	call
45	ANXA7 (GeneID 310)	2.21	inactive
46	ANXA7 (GeneID 310)	0.7	inactive
47	ANXA7 (GeneID 310)	1.11	inactive
48	ANXA7 (GeneID 310)	-0.55	inactive
49	ABI1 (GeneID 10006)	-1.96	active
50	ABI1 (GeneID 10006)	-1.16	inactive
51	ABI1 (GeneID 10006)	-1.3	inactive
52	ABI1 (GeneID 10006)	-1.66	active
53	NAT2 (GeneID 10)	0.66	inactive
54	NAT2 (GeneID 10)	-0.59	inactive
55	NAT2 (GeneID 10)	0.11	inactive
56	NAT2 (GeneID 10)	0.04	inactive
57	PROSER3 (GeneID 148137)	-1.47	inactive
58	PROSER3 (GeneID 148137)	-1.01	inactive
59	PROSER3 (GeneID 148137)	-1.23	inactive
60	PROSER3 (GeneID 148137)	-0.71	inactive
61	CCDC61 (GeneID 729440)	-0.63	inactive
62	CCDC61 (GeneID 729440)	0.83	inactive
63	CCDC61 (GeneID 729440)	-0.05	inactive
64	CCDC61 (GeneID 729440)	-0.4	inactive
65	ITPR1 (GeneID 3708)	0.43	inactive
66	ITPR1 (GeneID 3708)	0.3	inactive
67	ITPR1 (GeneID 3708)	-0.06	inactive
68	ITPR1 (GeneID 3708)	1.2	inactive
69	ADGRA3 (GeneID 166647)	0.5	inactive
70	ADGRA3 (GeneID 166647)	1.54	inactive
71	ADGRA3 (GeneID 166647)	1.53	inactive
72	ADGRA3 (GeneID 166647)	0.21	inactive
73	MLLT6 (GeneID 4302)	-0.5	inactive
74	MLLT6 (GeneID 4302)	-0.11	inactive
75	MLLT6 (GeneID 4302)	-1.29	inactive
76	MLLT6 (GeneID 4302)	-1.24	inactive
